Data as given in PubChem BioAssay AID1259424 (University of Nebraska Medical Center, 2018)
Aim: 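Rank knockdowns across the genome by resemblance to the KSR1 depletion profile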 (primary screen). System: human HCT116 colon cancer cells. Knock-down reagent: siRNA pool against human genes, 50 nM. Measured: 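Log2 levels of six mRNAs (branched-DNA multiplex), adjusted by two reference genes and the non-targeting median, then scored against the average KSR1 knockdown pattern as Pearson r and euclidean distance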. Reading the numbers: mean correlation with KSR1 profile: higher = expression change more like KSR1 knockdown.
In all, the deposit lists about 14,000 reagents; below is a random part of them. 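Higher correlation or smaller distance means closer resemblance to KSR1 loss; control wells, including KSR1 knockdowns, recur on many plates.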 The numbers tell different reagents against one gene apart. Not all columns of the deposit are shown. The record does not give: the time to read-out.

mean correlation with KSR1 profile, by target gene and reagent
PDCD2L (GeneID 84306): #1 0.903
FLJ21369 (retired record) (GeneID 79860): #1 0.147
TCEAL4 (GeneID 79921): #1 0.528
MIR503HG (GeneID 84848): #1 0.0947
ANKRD36B (GeneID 57730): #1 -0.0452
ST6GAL1 (GeneID 6480): #1 0.333
TKT (GeneID 7086): #1 -0.726
TIE1 (GeneID 7075): #1 0.298
MAP10 (GeneID 54627): #1 0.00819
OR8G2P (GeneID 26492): #1 0.122
TERT (GeneID 7015): #1 0.104
MICALL1 (GeneID 85377): #1 -0.0306
SIM2 (GeneID 6493): #1 0.683

Laid out differently: 4 of the entries above.
OR8G2P (GeneID 26492)
- mean correlation with KSR1 profile: 0.122

TERT (GeneID 7015)
- mean correlation with KSR1 profile: 0.104

MICALL1 (GeneID 85377)
- mean correlation with KSR1 profile: -0.0306

SIM2 (GeneID 6493)
- mean correlation with KSR1 profile: 0.683

More records follow.
mean correlation with KSR1 profile, by target gene and reagent
ASCC3 (GeneID 10973): #1 -0.548; #2 -0.477
LRCH1 (GeneID 23143): #1 0.248
MAG (GeneID 4099): #1 0.188
DLEC1 (GeneID 9940): #1 0.26
FUT1 (GeneID 2523): #1 -0.161
CCDC14 (GeneID 64770): #1 -0.405
SGK1 (GeneID 6446): #1 0.188
RPRD1A (GeneID 55197): #1 -0.623
SV2A (GeneID 9900): #1 -0.405
SMAP1 (GeneID 60682): #1 -0.00957
STK25 (GeneID 10494): #1 0.556
PRND (GeneID 23627): #1 -0.0489
SYDE1 (GeneID 85360): #1 -0.371
LCMT2 (GeneID 9836): #1 -0.103
P2RX1 (GeneID 5023): #1 0.0225
ZNF587 (GeneID 84914): #1 -0.0851
CINP (GeneID 51550): #1 0.127
NECAB1 (GeneID 64168): #1 -0.275
MRPL4 (GeneID 51073): #1 -0.449
FGF7 (GeneID 2252): #1 0.078
